Results on one molecule are retold here after CN116462616A, “炔酰胺类化合物及其应用” (Jinan University, priority 2022, dated 2023).

For the series, the system named is HepG2 cells [HepG2细胞]. The experiment in a line: Proteomics experiment for target confirmation of YN-1/4 in HepG2 cells. The conditions noted are these: 50 μM, 37 °C, 5 h. The series is classed as cell-based, human.

For `C#Cc1ccc(S(=O)(=O)N(C)C#C)cc1` [YN-1], the “number of target proteins identified” value came to 999; the “number of target proteins overlapping between YN-1 and YN-4” value worked out at 211.
